Screen size: about 52,000 sequences; about 210 (0.4%) were called active.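 The calls were made as follows: active = gene whose silencing raises cell survival under the drug, median off-target-corrected z-score across its silencing RNAs 2 or more; inactive = the rest.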 This is one part of the list.

The assay is described as follows: Resistance to Poly (ADP-Ribose) Polymerase inhibitor: Gene Identification via Genome-wide siRNA Screen. Particulars: mouse BRCA2 R2336H ES cells, olaparib, CellTiter-Glo viability; active compounds read high. The gist of the method: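 Genome-wide siRNA screen (3 siRNAs/gene, 20 nM) in mouse ES cells carrying hypomorphic BRCA2 R2336H; olaparib 500 nM added 48 h post-transfection, CellTiter-Glo viability 72 h later. Normalized to plate-median negative control; MAD z-scores, gene median, seed-adjusted.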
For GGCCAACCUGUUCAUCAGCTT against Bdkrb1, the z-score is inactive: 0.956. The value for GGUUUGCUAGCUGACAACCTT against Dpep1 was inactive: 1.32. For the sequence “GGAGCUGAGCAGUGAUGAATT against 4933437K13Rik”, the z-score is inactive: -0.622. GGACUGAUUGAUAAAGUCATT against Srp54: the z-score was inactive: -1.33. As for GGACUGUUGAAUAAAACCUTT against Rnps1, the figure is inactive: -1.02; as for “GGAGAAAGAGGAGAAGAAATT against 4931414P19Rik”, inactive: -1.86; as for “CCCUAAUAAUCAAUGCAUCTT against 2010002M12Rik”, inactive: 0.596. Turning to GUCCAGAGUGACCACAUUUTT against Pemt, the z-score is inactive: -1.32. Consider GGGAACCAGGGACUUUGAUTT against LOC224833, for which the z-score is inactive: -0.399. On to CGGGAGACUGGUUAUCAACTT against Tssc1, for which the z-score was inactive: 0.858. The value for GGUCGACUGAAGGCCUUUUTT against Olfr1339 was inactive: -1.43; that for GGGAGCAGUAGCAGUGUCATT against Zfp403 was inactive: 1.82.

GGAGCUGGACAAGUUCAUGTT against Ush3a: the z-score is inactive: -1.39. For the sequence “GGAUGAUGGAGGGAAACUUTT against D330028D13Rik”, the z-score was inactive: -1.29.

GGUGACAUUGUAAUAACCATT against Sult1b1: the z-score was inactive: -1.01.

For the sequence CCAGAGUACAGUGUAGUCATT against Hspb6, the z-score is inactive: -2.5. As for GGACAUUGUGCUAUUUUAATT against Mepe, the figure is inactive: 2.35; as for GGGAAACUCUGCAUGAGUATT against Odz1, inactive: -0.167; as for “GGAAUCUCAAUGAAAGAUGTT against B830017A01Rik”, inactive: 0.492. As for GCCUAUGGCUGGUCAGUGUTT against LOC271048, the figure is inactive: 0.367; as for GGGUUCUUGGACAAACAGGTT against Eps15-rs, inactive: -0.128. The value for GGAGAGUAUUCCAAGGUCCTT against Mrpl14 was inactive: 0.567; that for UCUAUCUCAUUACUAUUGUTT against Olfr190 was inactive: 1.13. Take GGAUUUAAUAGCCAUCGGUTT against Slc26a8: the z-score is inactive: -0.333. The value for GGAUCUUGACUUUGAUAUGTT against Trpm4 was inactive: 0.316; that for GGUCCUAGGUGCUAUAAUGTT against Matn4 was inactive: -1.01; that for GCUGAAGAGAUAUGAGUUCTT against Dpp3 was inactive: 1.28. For the sequence “GGCAGCUUUGGAACAACUATT against 2700069A02Rik”, the z-score was inactive: -0.481.

For CGUUCAUGUAUUUGAUGUATT against Asb4, the z-score is inactive: -0.775. The value for CCUUACUGGGUUAGAGAUGTT against Sdf2 was inactive: 1.42; that for “CGUGUCUCAUGGCAGAGUUTT against 6330527O06Rik” was inactive: 0.108.

For GGUCACAGUUGUUUGAAGUTT against Bst2, the z-score was inactive: -0.291. For the sequence GGUCCGACUGUCAUGAAUGTT against Dirc2, the z-score is inactive: -0.488.

Regarding GCAGAGGUCUCUAAGCCAUTT against Lad1, the z-score is inactive: -0.575.

For “GAGAGAAUCCGUCAACGGATT against 4833420G17Rik”, the z-score was inactive: 0.643.

For the sequence GGACACUUAAAGAUCCUGCTT against Armc7, the z-score is inactive: 0.194. The value for CCUGAUCUUGCACUCGAUGTT against Tbx6 was inactive: -0.295; that for GGGUGUUCAUACAAGCCGUTT against Zp1 was inactive: 0.853; that for CCUGCACAGGAUAAUUAUGTT against Zfp426 was inactive: 1.21. For the sequence GGAGAAACGGUACAUCUGUTT against Gstm5, the z-score was inactive: 0.631.

Consider CCUCUCAGAUUUUCACAUATT against BC050092, for which the z-score was inactive: 0.559. GGGUAAUUGUCUCUAGUAATT against Adam24: the z-score was inactive: 1.6. As for CCUCCUUAGACUCAAAUCCTT against Nfe2l2, the figure is inactive: 1.31. The value for GGAAGAGCCAUCGUUUGCCTT against St5 was inactive: 1.01; that for GCGCAACAUCUAUAAACGGTT against Mtmr4 was inactive: 1.3.

Consider GGAAGAGAUAGCUUGAUUUTT against G22p1, for which the z-score is inactive: -1.68. Regarding GGAUUUAUACUGAAUUGUCTT against Rpl39, the z-score was inactive: 0.215. CCUGAGUCCACUGAUGAAGTT against LOC432988: the z-score is inactive: -1.54. As for CGCGGUGGAGCUUCGAGAATT against Nrtn, the figure is inactive: 0.714; as for GGAAACUUGCUCAAUUUCCTT against Sec22l2, inactive: -0.000975; as for GCGGCAGUGAUGAUAAGAATT against Acbd5, inactive: 0.377. For the sequence GGAAAUAUUGUCAUCAUGGTT against Olfr1302, the z-score was inactive: 0.757. The value for GGAAGAAGAACUGCACCUATT against Tcea2 was inactive: -0.308. In the case of GCGAGUCGCUCAUAGUGAATT against AW822216, the z-score is inactive: 0.476. As to “GGAAAGAAACUACUUCAUCTT against G630009D10Rik”, the z-score was inactive: 0.586. As for GGAUGGAUAUCACAUAGAATT against Msr2, the figure is inactive: 1.86.

Turning to GGAGACAGUAAUAGCUCAUTT against Trp53bp1, the z-score was active: 2.14.

As for GGCAUUUAGUGACAACCCATT against Cxcl13, the z-score is inactive: 0.491. The value for GGAUACCAGACCUCAAGUGTT against P2rx1 was inactive: -0.242. Take GCUAUACUUUUGGGUUAUCTT against Mynn: the z-score was inactive: -0.673. As for CCCUUCUCUCGGAAUAAUATT against Gng12, the figure is inactive: 0.526; as for GGAAGAAAAUUCCAAUUUGTT against Rnf24, inactive: 1.37.

On to GGAUAUCAACUCUUGCUUUTT against Gcl, for which the z-score is inactive: 0.677.

In the case of GUCUAUACACCAAAGAUCUTT against Olfr1014, the z-score is inactive: 0.813. As for CCACACCAUAACAACAUUCTT against Olfr800, the figure is inactive: -0.645.

Take GGCUGGAUUCUUGAACCUGTT against Zfp128: the z-score was inactive: -0.119. The value for GCGUGUACUAAGUUCUUUGTT against Olfr549 was inactive: 0.361. As for CCACUGAAGUAGUUUCCUATT against Nipsnap3a, the figure is inactive: -1.97; as for CCGAUUCCUUAGUCAUCGUTT against Pdgfra, inactive: 0.688. The value for GGAAGCAUUGAAGAUAAGATT against Topbp1 was inactive: 0.226; that for “GGUGGUGAAACUCAAGAUCTT against G630024C07Rik” was inactive: 0.381.

In the case of “CCCAGUUAUCCUGAAAAGUTT against 3230401I01Rik”, the z-score is inactive: 0.0119. As for GGCUUUCUCCAAGCUAUAUTT against Tdgf1, the figure is inactive: -2.27; as for GCAGGCUAUGCUACGCACATT against Arsb, inactive: 1.66.

In the case of GGAGGGAAAUGUUUUAUGUTT against BC004022, the z-score was inactive: 0.573.

Turning to GGCUUUGGAAUGAGAGCUUTT against Dncl2a, the z-score is inactive: -2.06.

GGGAUCUGGAUGAGGUCAATT against Tcf3: the z-score is inactive: 0.227. CCACAUUUAUGGCUAAAUUTT against BC037674: the z-score was inactive: 0.759. As for GGAUAUCGGAUAUGUAAAUTT against Syk, the figure is inactive: -0.298; as for GAAGGAGACAGCACAAGUCTT against H2-M10.2, inactive: 1.12; as for GGACUGUGACAAAGCACAUTT against Ngfa, inactive: -0.872. The value for GGUGCCUAGUUUGUGGAUATT against D10Jhu81e was inactive: 0.466; that for GGCAAGGUCAAGGACACCATT against Tcp11 was inactive: 0.516; that for CGAAAACAAUUACGUCUAUTT against BC027246 was inactive: 0.222. As for GGCCAUUGAUACCUACUGCTT against Comt, the figure is inactive: 0.131; as for GCACGUAUGGAAUUCAUGUTT against Daam2, inactive: 0.557; as for “GCGGCUACUCAUAUAAGUCTT against 5033403J15Rik”, inactive: 0.175. On to GGAUCGUUAGUCAUUUCUGTT against Olfr1054, for which the z-score is inactive: -0.691. In the case of GGGCUUAACACUUUAAAUCTT against D10Ucla1, the z-score was inactive: -0.267. The value for GCUCAGUAAUCGCUGUCUATT against Olfr91 was inactive: -2.51; that for GGAGCUGCGCAACAUUAUCTT against Ada was inactive: 0.834.

For the sequence “GGUGAUCUUUUCUUUCUUUTT against 9430023B20Rik”, the z-score was inactive: 1.26.

Take CCCUCAUCUUUGACGUGGATT against Fkbp1b: the z-score was inactive: 0.203. The value for GGACUUAUCACUAUUUGCATT against Dlgap3 was inactive: 1.29.

For the sequence GCUAAUAACAGUCCUUUCATT against Rorc, the z-score was inactive: 1.58. On to “GCCUUACUGACUCGUGUCCTT against 6330503K22Rik”, for which the z-score was inactive: 1.09. The value for GGCUCCAACAGCGACAUGUTT against Glul was inactive: -0.648.

Regarding GGAGCAAGAAGAACAUUACTT against Galnact2, the z-score is inactive: -0.378. As for GGUAAAAAGCGCAGACUUATT against Bms1l, the figure is inactive: -2.9; as for GGCAUUCAUGUUCUUGACUTT against Ptp4a1, inactive: 0.634; as for GGAUGAUGCUCGAAAGAAGTT against Stk22a, inactive: 0.381. Regarding GGAUCUCUUUUUUCACAUGTT against Kcne2, the z-score is inactive: 0.338. The value for GGAGAUUGCACACUUCCAGTT against MGC37347 was inactive: -2.37. The value for “GGAAGAAACCUUUGUCAAGTT against 9130023H24Rik” was inactive: 0.605; that for GGGAAGUGGCUUUUGAUGUTT against Itih1 was inactive: 0.937.

The values above are taken from PubChem BioAssay AID1347423 (Functional Genomics Laboratory (NCATS/FGL), 2020).
